From PubChem BioAssay AID493014 (National Center for Advancing Translational Sciences (NCATS), 2011)
Some of the results follow. These are further read-outs of the screen, such as a control signal, another cell line or another target. No call is given for them. Compounds called inactive in the main read-out are mostly missing here. Potencies come from curve fits of mixed quality, noted in brackets.

Assay: qHTS Assay to Find Inhibitors of Chronic Active B-Cell Receptor Signaling
Conditions: ABC-DLBCL IkBa-CBG/CBR reporter, luminescence ratio (green luciferase fused to IkBa over red control in TMD8 lymphoma cells), 4 h
Method in brief: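 TMD8 human ABC-DLBCL cells with doxycycline-inducible IκBα–green luciferase fusion and unfused red luciferase, in 0.5% FBS medium; compounds up to 46 uM, 4 h at 37C. Green/red luminescence ratio, filter-overlap corrected, fitted to concentration-response curves.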

[1] = measured here: CBR red luminescence, cell number
[2] = measured here: IkBa-CBG green luminescence

Structure (SMILES)	AC50 [1]	AC50 [2]
O=C(Nc1cccnc1)c1ccc(-c2cc(Cl)ccc2Cl)o1	17.8 µM [falling, single point]	
COc1ccc(OCCn2cc(/C(N)=N/O)c3ccccc32)cc1	6.31 µM [rising, single point]	
Cc1cccc(CCNc2nc3ccc(C)cc3n3cnnc23)c1	0.631 µM [rising, full curve, poor fit]	
Cc1cc(C(=O)N2CCc3ccccc32)c2ccccc2n1	35.5 µM [rising, single point]	
FC(F)(F)c1cccc(N/N=C/c2ccccc2)c1	0.058 µM [rising, full curve, poor fit]	
CCOc1cc(CNC(=O)c2sc3ncnc(N(C)C4CCCCC4)c3c2C)ccc1OC	2.82 µM [rising, partial curve, poor fit]	
O=C(Nc1cc2ccccc2oc1=O)c1ccccc1	1.78 µM [falling, full curve]	
COc1cccc(C2c3c(oc4ccccc4c3=O)C(=O)N2CCCN2CCOCC2)c1 (centres undefined)	11.6 µM [rising, partial curve]	
CC1=CC(C)C(COC(=O)CN2CCCCC2)C(C)C1 (centres undefined)	11.2 µM [rising, partial curve]	
CCOC(=O)CSC1=C(C#N)C(c2ccc(C)o2)CC(=O)N1 (centres undefined)	7.31 µM [rising, partial curve]	4.61 µM [falling, full curve]
COCCn1c(SCC(=O)N2CCCc3ccccc32)nc2cccnc21	6.51 µM [falling, single point]	
O=c1[nH]ncc(N/N=C\c2ccc(O)cc2O)c1Cl	7.08 µM [falling, partial curve]	
CCCCn1c(SCC(=O)Nc2nc(C)cs2)nnc1-c1cccnc1	13 µM [falling, partial curve, poor fit]	
O=C(NNC(=O)c1cccc2ccccc12)c1ccc(-c2ccccc2)cc1	20.6 µM [rising, single point]	
COc1ccc(-c2ccc(=O)n(CC(=O)Nc3ccc(C(=O)NC4CC4)cc3)n2)cc1OC	0.562 µM [falling, full curve, poor fit]	
CCCc1cc(-n2cnc3ccccc32)n2c(nc3ccccc32)c1C#N	3.26 µM [rising, partial curve, poor fit]	
Cc1csc(SCC(=O)NCc2ccccc2)n1	5.62 µM [rising, partial curve, poor fit]	
CC1CCCCN1C(=O)COC(=O)C1CCN(S(=O)(=O)c2c(Cl)cccc2Cl)CC1 (centres undefined)	6.31 µM [rising, full curve, poor fit]	
O=C(O)c1ccc(NS(=O)(=O)c2cccc(C(=O)Nc3ccc([N+](=O)[O-])cc3)c2)cc1	12.6 µM [rising, single point]	
CN(Cc1cccs1)C(=O)Cn1cnc2cc([N+](=O)[O-])ccc2c1=O	35.5 µM [falling, single point]	

Structure (SMILES)	AC50 [1]	AC50 [2]
COC(=O)c1cc2sc(Cl)cc2n1CC(=O)Nc1ccc(OC)c(OC)c1OC	0.794 µM [falling, full curve, poor fit]	
CCOc1ccc(Sc2cc(C(=O)NC(C)c3ccccc3)c3ccccc3n2)cc1 (centres undefined)	3.16 µM [falling, partial curve, poor fit]	
COc1cccc2sc(N(CCCN(C)C)C(=O)COc3ccc(Cl)cc3)nc12	20 µM [falling, single point]	
Cc1cc(=O)[nH]c(SCC(=O)Nc2ccc(Br)cc2)c1C#N	1.64 µM [rising, single point]	
O=C(O)Cc1ccc(C(=O)c2ccccc2)s1	23.1 µM [rising, partial curve]	10.3 µM [rising, partial curve, poor fit]
O=C1/C(=C/c2ccco2)CCC1C1CCCC1 (centres undefined)	4.47 µM [rising, single point]	
O=C(NCC(c1ccco1)N1CCCC1)c1cn(Cc2ccccc2)nc1-c1ccccc1 (centres undefined)	18.4 µM [falling, single point]	
Cc1ccc2oc(-c3ccc(NC(=O)c4ccc5c(c4)OCO5)cc3)nc2c1	20.6 µM [rising, single point]	
CNC(=O)C(=O)NCC1CCCN1S(=O)(=O)c1cccs1 (centres undefined)	18.4 µM [rising, partial curve, poor fit]	
CC(C)(C)c1cc(C(=O)Nc2ccc(F)cc2)n(Cc2ccc(F)cc2)n1	35.5 µM [falling, single point]	
CN(C)c1ccc(-c2nc3ccccc3c(=O)[nH]2)cc1	10 µM [falling, partial curve]	5.01 µM [rising, full curve]
COc1ccc(C2c3ccc4ccccc4c3Oc3ncn(Cc4ccco4)c(=N)c32)cc1OC (centres undefined)	9.2 µM [falling, partial curve]	
Cc1cccc(N2CCN(S(=O)(=O)c3ccc(Cl)nc3)CC2C)c1 (centres undefined)	9.2 µM [falling, partial curve]	
O=[N+]([O-])c1cccc(N/N=C/c2cc([N+](=O)[O-])ccc2O)c1	6.31 µM [falling, full curve]	
CCN(CC)S(=O)(=O)c1ccc(C)c(NC(=O)COC(=O)CN2C(=O)NC(C)(C)C2=O)c1	0.082 µM [rising, full curve, poor fit]	
O=[N+]([O-])c1ccc(Sc2ccc(Cl)c(Cl)c2)nc1	7.08 µM [falling, partial curve, poor fit]	
CCOC(=O)COc1cccc2c(=O)n(CC(=O)NCc3ccc4c(c3)OCO4)ccc12		2.91 µM [falling, partial curve, poor fit]
Cc1ccc2[nH]c(=O)c(CN(Cc3ccc4c(c3)OCO4)Cc3nnnn3Cc3ccco3)cc2c1	0.517 µM [falling, full curve, poor fit]	
Cc1ccc2[nH]c(-c3cccc(F)c3)cc(=O)c2c1	2.31 µM [rising, full curve]	4.61 µM [falling, full curve]
Cc1cccc(N(CC(=O)NCCc2ccccc2)C(=O)CCC(=O)Nc2ccccn2)c1C	20 µM [falling, single point]	

Reformatted: 2 of the compounds above.

| Structure (SMILES) | AC50 [1] | AC50 [2] |
| --- | --- | --- |
| O=C(Nc1cc2ccccc2oc1=O)c1ccccc1 | 1.78 µM [falling, full curve] |  |
| Cc1ccc2oc(-c3ccc(NC(=O)c4ccc5c(c4)OCO5)cc3)nc2c1 | 20.6 µM [rising, single point] |  |
